# According to ChEMBL document CHEMBL2429777, “Synthesis and antibacterial activity evaluation of 2,6-bis(6-substituted-1,2,4-triazolo[3,4-b][1,3,4]thiadiazol-3-yl)pyridine derivatives” (2013):
# Key:
# Assay type in all cases: functional
# Escherichia coli = test: Antibacterial activity against Escherichia coli at 100 ug/tube after 24 hrs by cylinder-plate method
# Pseudomonas aeruginosa = test: Antibacterial activity against Pseudomonas aeruginosa at 100 ug/tube after 24 hrs by cylinder-plate method
# Staphylococcus aureus = test: Antibacterial activity against Staphylococcus aureus at 100 ug/tube after 24 hrs by cylinder-plate method
sequence,measurement,setting,value
GENTAMICIN,inhibition zone (IZ),Escherichia coli,25 mm
same,inhibition zone (IZ),Pseudomonas aeruginosa,21 mm
same,inhibition zone (IZ),Staphylococcus aureus,22 mm
